The values below come from publication PMC8828969, “Arylamine N-Acetyltransferase 1 Activity is Regulated by the Protein Acetylation Status” (Frontiers in Pharmacology, 2022).

Holding throughout (format): cell-based, human
Test [1] concerns NAT1. As to the kind of experiment: NAT1 acetylation status (acetyl-lysine immunoprecipitation, AcNAT1/NAT1) in ZR-75-1 cells. Conditions: 48 h, vs vehicle control. Here is the method:
(§1) In order to assess the acetylation status of NAT1 protein, MDA-MB-231(6 × 10^5) and ZR-75-1 (3 × 10^6) cells were seeded onto 100 mm cell culture dishes and allowed to attach overnight. The next day, cells were treated with either 10 µM or 100 µM of Sirtuin inhibitors (AGK2, EX527, Sirtinol), HDAC inhibitors (SAHA, TSA) or were transiently transfected with Sirt1 and Sirt2 SiRNA KD cocktail as described before. After 48-h drug treatment or 72-h siRNA transfection, cells were collected and lysed following the protocol of Signal-Seeker Acetyl-Lysine Detection kit (Citoskeleton, Denver, CO, United States). Briefly, after the incubation period concluded, cells were washed twice with PBS and lysed in ice-cold lysis buffer, 20 mM Tris-HCl (pH 7.4), 5 mM EDTA, 150 mM NaCl, 0.5% Triton X-100, 10 mM sodium butyrate and protease/phosphatase inhibitors cocktail. Cell lysates were incubated on ice for 20 min and isolated by centrifugation at 16,000 × g for 20 min. Supernatants were recovered and protein concentration was measured as described before. 150 µg of lysate was used for the IP; 1/10 of the sample was kept as input control. […] Densitometric analysis on the immunoblots was performed using ImageJ ([Schneider et al., 2012]) software or IMAGE STUDIO Lite software (LI-COR Biosciences, Lincoln, NE, United States), which enables quantitative analysis of blotting signals. […]

Test [2] deals with NAT1b transcript. Nature of the test: NAT1b mRNA quantification by qRT-PCR in ZR-75-1 cells. Conditions: 48 h, vs vehicle. How it is done:
(§2) NAT1 mRNA levels were measured as described previously ([Millner et al., 2012]). Primers were designed to recognize only NAT1b expression. Briefly, total RNA was isolated cells lines using the RNeasy Mini kit (Qiagen, Hilden, GER) followed by removal of contaminating DNA by treatment with Turbo DNA-free (Ambion, Austin, TX, United States). cDNA was synthetized using the High-Capacity Reverse transcriptase kit (Life Technologies, Carlsbad, CA, United States) using 1 µg of total RNA in a 20 µL reaction following manufacturer’s instructions. Quantitative Reverse Transcription polymerase Chain Reaction (qRT-PCR) was used for the quantification of relative amount of NAT1, SIRT1 or SIRT2 mRNA in MDA-MB-231 and ZR-75-1 cells after drug treatment or siRNA KD assays. qRT-PCR reactions were done in the Step One Plus (Life Technologies, Carlsbad, CA, United States) containing 1 × final concentration of iTaq universal SYBR Green Supermix (Bio-Rad, Hercules, CA, United States) and 500 nm of each primer (Table 1) in a 20 µL reaction. β2-microglobulin (B2M) was used as housekeeping control to determine ΔCt (gene of interest Ct−B2M Ct ). ΔΔCt was determined by the subtraction of the smallest ΔCt and relative amounts of the gene of interest mRNA were calculated using 2^−ΔΔCt as previously described ([Barker et al., 2006]; [Salazar-Gonzalez et al., 2018b]). […]

Test [3] deals with NAT1. As to the kind of experiment: NAT1 acetylation status (acetyl-lysine immunoprecipitation, AcNAT1/NAT1) in MDA-MB-231 cells. Conditions: 48 h, vs vehicle. How it is done: as §1
The next test concerns KDAC proteins. Nature of the test: KDAC (Sirtuin / HDAC) activity, both breast cancer cell lines (discussion summary). Conditions: MDA-MB-231 and ZR-75-1 cell lines. The text has this: Supernatant was recovered ant kept on ice.
Test [4] relates to NAT1b transcript. Nature of the test: NAT1b message expression, MDA-MB-231 or ZR-75-1 cells (summary statements). Conditions: both cell lines, 10 and 100 µM, 48 h. How it is done:
as §2

Take `O=C(CCCCCCC(=O)Nc1ccccc1)NO` [SAHA, Vorinostat]: the “NAT1 acetylation status, fold increase” value with NAT1 [1] (10 µM) is given as 1.6 fold; with NAT1 [1] (100 µM) it was 2.1 fold. The “NAT1b transcript expression, fold increase” value with NAT1b transcript [2] (10 µM) is ~5 fold; in the test with NAT1b transcript [2] (100 µM) it was ~3 fold. Further, the “NAT1 acetylation, fold increase” value in the test on NAT1 [3] (10 µM) worked out at 1.45 fold; with NAT1 [3] (100 µM), 2 fold. Also, the “dose producing inhibition of KDAC enzymatic activity” value with KDAC proteins was 1 µM. Moreover, the “upregulation of NAT1b transcription, fold” value in the test with NAT1b transcript [4] is 4-6 fold.
